{"source": "patent US9675591B2", "about": "“Methods for treating seizure disorders and pain” (THE REGENTS OF THE UNIVERSITY OF CALIFORNIA, priority 2013, dated 2017)", "format_in_all_cases": "in vivo", "key": {"[1]": {"system": "mice", "test": "Acute toxicity, rotorod test in mice", "protocol": "Abnormal neurological status in mice following SKA-19 administration was evaluated with the rotorod test. When a normal mouse is placed on a rod 1 inch in diameter that rotates at a speed of 6 rpm, the mouse can maintain equilibrium for a long time. Inability of the mouse to stay on the rotating rod in three trials for 1 min is taken as an indication of motor impairment. […] Mice were placed on a horizontally oriented grid (consisting of parallel 1.5-mm diameter rods situated 1 cm apart), and the grid was inverted. Animals that fell from the grid within 10 s were scored as impaired."}, "[2]": {"test": "Pharmacokinetics in Sprague-Dawley rats", "details": "male, rat, plasma, intraperitoneal, 10 mg/kg i.p."}, "[3]": {"system": "rats", "test": "Acute toxicity, neurological status of rats (positional sense, muscle tone, gait and stance)", "details": "30 mg/kg i.p.", "protocol": "(§1) Abnormal neurological status in rats was evaluated by the positional sense test, the muscle tone test, and the gait and stance test. Inability of the rat to perform normally in at least two of these tests is taken as an indication of some neurological deficit."}, "[4]": {"test": "Acute toxicity, neurological status of rats (positional sense, muscle tone, gait and stance)", "details": "Sprague-Dawley, rat, in vivo, oral", "protocol": "as §1"}, "[5]": {"system": "6 Hz seizures", "test": "6 Hz seizure test, compounds given i.p. as solution", "details": "Mus musculus, ip, 10 min, mice, values stated uncertain", "protocol": "The mouse maximal electroshock (MES) and 6 Hz seizure models were used. Motor toxicity was assessed using a modification of the horizontal screen test. ED50 values in the seizure models and TD50 values in the toxicity test were determined by nonlinear fitting of dose-response curves. […] Drugs solutions were injected intraperitoneally 10 min prior to administration of the electrical stimulus in a volume of 10 ml/kg body weight."}}, "data": [{"compound": "Nc1nc2ccc(OC(F)(F)F)cc2s1", "note": "[riluzole, 2-amino-6-(trifluoromethoxy)benzothiazole, reference compound]", "values": [{"measurement": "mice with affected rotorod performance and righting reflexes", "setting": "[1]; 30 mg/kg i.p.", "result": "8 out of 8"}, {"measurement": "mice that died", "setting": "[1]; 100 mg/kg i.p.", "result": "8 out of 8"}, {"measurement": "concentration at 2 h", "setting": "[2]", "result": "4.1 ± 0.2", "unit": "µM"}, {"measurement": "animals with neurological deficits", "setting": "[3]", "result": "4 out of 4"}, {"measurement": "deaths", "setting": "[3]", "result": "killed one animal"}, {"measurement": "TD50", "setting": "[4]", "result": 21.4, "unit": "mg/kg"}, {"measurement": "ED50", "setting": "[5]", "result": 16.4, "unit": "mg/kg"}]}]}
